Assay results as given in PMC9042866.
No constants are given. Whether binding was seen depends on the method and setting. In cells and extracts the contact can be indirect. Some binding calls cover weakened binding; strength is not graded here. Where a sequence is shown, tags or fusion partners need not be part of it.

Sequences of proteins named here, by UniProt entry; tags and fusion partners are left off.
UniProt O75369: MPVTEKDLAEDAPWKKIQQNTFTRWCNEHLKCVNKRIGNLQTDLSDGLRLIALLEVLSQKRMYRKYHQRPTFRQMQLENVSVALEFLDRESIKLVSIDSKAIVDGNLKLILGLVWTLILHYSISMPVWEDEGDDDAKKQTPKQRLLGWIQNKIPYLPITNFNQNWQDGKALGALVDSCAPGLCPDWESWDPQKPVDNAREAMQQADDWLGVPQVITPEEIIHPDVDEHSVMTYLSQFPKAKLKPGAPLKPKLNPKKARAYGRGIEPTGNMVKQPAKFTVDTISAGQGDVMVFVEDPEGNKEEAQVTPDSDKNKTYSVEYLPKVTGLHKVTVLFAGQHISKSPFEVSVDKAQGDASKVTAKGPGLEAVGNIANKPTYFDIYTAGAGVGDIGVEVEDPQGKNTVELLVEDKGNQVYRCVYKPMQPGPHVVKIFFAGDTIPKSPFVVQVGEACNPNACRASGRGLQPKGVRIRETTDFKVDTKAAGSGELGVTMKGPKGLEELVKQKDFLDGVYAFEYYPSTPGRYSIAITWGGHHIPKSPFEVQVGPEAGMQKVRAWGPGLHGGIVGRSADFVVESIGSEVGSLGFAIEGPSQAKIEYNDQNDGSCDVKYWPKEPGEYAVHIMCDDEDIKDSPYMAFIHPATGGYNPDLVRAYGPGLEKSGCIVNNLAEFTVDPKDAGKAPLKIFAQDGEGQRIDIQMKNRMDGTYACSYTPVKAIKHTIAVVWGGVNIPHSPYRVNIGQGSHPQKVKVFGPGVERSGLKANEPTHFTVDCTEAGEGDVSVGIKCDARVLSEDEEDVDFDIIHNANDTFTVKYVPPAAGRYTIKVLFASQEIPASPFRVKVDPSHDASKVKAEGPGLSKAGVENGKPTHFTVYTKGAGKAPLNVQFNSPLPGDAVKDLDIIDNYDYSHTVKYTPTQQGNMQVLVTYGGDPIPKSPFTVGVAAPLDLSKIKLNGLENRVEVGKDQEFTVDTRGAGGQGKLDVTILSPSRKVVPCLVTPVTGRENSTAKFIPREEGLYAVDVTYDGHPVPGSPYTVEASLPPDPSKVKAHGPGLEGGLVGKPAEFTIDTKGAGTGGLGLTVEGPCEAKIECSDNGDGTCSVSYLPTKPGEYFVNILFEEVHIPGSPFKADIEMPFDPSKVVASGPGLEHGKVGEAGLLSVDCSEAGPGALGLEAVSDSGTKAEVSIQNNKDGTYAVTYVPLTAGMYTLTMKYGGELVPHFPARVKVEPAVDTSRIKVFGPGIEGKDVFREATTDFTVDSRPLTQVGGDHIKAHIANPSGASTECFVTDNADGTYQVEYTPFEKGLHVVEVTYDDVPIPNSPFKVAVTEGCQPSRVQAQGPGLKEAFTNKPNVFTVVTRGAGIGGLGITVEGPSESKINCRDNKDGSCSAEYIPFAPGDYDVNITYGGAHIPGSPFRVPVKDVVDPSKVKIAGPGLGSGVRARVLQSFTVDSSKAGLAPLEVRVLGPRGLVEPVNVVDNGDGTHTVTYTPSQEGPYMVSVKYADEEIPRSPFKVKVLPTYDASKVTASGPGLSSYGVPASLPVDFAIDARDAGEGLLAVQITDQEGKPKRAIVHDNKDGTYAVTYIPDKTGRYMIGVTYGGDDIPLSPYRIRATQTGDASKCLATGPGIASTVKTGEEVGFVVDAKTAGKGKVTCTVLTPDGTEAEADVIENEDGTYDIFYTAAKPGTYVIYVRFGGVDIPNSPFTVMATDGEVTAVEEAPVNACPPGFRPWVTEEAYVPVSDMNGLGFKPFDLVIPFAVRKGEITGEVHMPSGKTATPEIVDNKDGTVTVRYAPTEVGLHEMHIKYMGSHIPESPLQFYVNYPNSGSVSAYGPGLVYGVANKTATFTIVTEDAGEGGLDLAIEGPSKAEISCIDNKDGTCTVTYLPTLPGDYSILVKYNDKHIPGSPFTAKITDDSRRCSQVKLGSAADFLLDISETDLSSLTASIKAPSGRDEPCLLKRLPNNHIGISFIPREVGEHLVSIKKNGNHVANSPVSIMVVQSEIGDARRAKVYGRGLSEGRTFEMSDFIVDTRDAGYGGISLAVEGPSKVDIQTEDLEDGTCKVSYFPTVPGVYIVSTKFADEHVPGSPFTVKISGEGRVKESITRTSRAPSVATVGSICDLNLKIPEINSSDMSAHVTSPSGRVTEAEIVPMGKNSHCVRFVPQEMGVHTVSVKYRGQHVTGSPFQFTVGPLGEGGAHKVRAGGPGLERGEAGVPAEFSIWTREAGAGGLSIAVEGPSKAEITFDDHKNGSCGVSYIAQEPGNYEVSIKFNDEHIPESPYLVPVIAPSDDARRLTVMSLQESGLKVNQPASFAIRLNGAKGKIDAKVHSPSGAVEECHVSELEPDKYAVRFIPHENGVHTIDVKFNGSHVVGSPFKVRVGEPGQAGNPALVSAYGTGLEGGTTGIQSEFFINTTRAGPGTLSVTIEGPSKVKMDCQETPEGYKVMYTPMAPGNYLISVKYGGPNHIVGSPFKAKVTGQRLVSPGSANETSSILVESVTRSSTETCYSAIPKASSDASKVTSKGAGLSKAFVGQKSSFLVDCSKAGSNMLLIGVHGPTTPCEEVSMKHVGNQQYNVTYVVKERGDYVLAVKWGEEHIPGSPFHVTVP
UniProt Q15797: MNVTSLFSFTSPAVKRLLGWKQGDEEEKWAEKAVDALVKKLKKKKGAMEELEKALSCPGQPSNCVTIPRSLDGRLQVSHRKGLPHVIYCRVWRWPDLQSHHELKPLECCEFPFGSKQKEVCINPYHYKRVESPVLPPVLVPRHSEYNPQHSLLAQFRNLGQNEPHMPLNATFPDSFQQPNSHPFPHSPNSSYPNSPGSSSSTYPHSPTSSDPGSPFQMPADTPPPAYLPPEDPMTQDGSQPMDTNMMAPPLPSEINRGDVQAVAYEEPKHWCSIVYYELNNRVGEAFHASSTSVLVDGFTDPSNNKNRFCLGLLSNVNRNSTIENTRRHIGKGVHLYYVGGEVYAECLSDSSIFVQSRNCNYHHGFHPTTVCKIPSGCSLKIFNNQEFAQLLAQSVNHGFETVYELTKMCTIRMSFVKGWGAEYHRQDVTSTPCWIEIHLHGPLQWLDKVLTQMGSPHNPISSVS
UniProt O15105: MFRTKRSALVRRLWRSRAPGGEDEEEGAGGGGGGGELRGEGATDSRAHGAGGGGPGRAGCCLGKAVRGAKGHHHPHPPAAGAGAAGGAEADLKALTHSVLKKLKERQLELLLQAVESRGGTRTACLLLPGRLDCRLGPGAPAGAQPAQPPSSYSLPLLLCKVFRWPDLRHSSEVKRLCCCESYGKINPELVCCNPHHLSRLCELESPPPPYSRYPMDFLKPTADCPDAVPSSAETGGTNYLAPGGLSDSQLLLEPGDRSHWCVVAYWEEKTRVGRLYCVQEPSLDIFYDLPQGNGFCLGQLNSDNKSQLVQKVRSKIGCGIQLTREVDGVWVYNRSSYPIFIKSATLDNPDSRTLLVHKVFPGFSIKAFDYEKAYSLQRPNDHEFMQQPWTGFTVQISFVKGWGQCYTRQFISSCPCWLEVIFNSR

B1: HA-tagged human Smad 6 (Smad 6-HA) (protein, UniProt O43541 1-496)
chain: MFRSKRSGLVRRLWRSRVVPDREEGGSGGGGGGDEDGSLGSRAEPAPRAREGGGCGRSEVRPVAPRRPRDAVGQRGAQGAGRRRRAGGPPRPMSEPGAGAGSSLLDVAEPGGPGWLPESDCETVTCCLFSERDAAGAPRDASDPLAGAALEPAGGGRSREARSRLLLLEQELKTVTYSLLKRLKERSLDTLLEAVESRGGVPGGCVLVPRADLRLGGQPAPPQLLLGRLFRWPDLQHAVELKPLCGCHSFAAAADGPTVCCNPYHFSRLCGPESPPPPYSRLSPRDEYKPLDLSDSTLSYTETEATNSLITAPGEFSDASMSPDATKPSHWCSVAYWEHRTRVGRLYAVYDQAVSIFYDLPQGSGFCLGQLNLEQRSESVRRTRSKIGFGILLSKEPDGVWAYNRGEHPIFVNSPTLDAPGGRALVVRKVPPGYSIKVFDFERSGLQHAPEPDAADGPYDPNSVRISFAKGWGPCYSRQFITSCPCWLEILLNNPR

Biological target: GFP-tagged human filamin B (FLNB-GFP) (human) (UniProt O75369)
Experiment: co-IP; lysates of wild-type MEFs co-transfected with FLNB-GFP and a Flag- or HA-tagged Smad plasmid; immunoprecipitated with an anti-GFP antibody (Protein A/G PLUS-Agarose); blots probed with GFP, Flag or HA antibodies

binding, binds:
Flag-tagged human Smad 1 (Smad 1-Flag) (from UniProt Q15797 1-465)
HA-tagged human Smad 7 (Smad 7-HA) (from UniProt O15105 1-426)
B1
